# The supplement of paper PMC6411743
# Sequences of proteins named here, by UniProt entry; tags and fusion partners are left off. A change or cut given only in a name is not applied to a line headed by its entry.
# UniProt Q9H936: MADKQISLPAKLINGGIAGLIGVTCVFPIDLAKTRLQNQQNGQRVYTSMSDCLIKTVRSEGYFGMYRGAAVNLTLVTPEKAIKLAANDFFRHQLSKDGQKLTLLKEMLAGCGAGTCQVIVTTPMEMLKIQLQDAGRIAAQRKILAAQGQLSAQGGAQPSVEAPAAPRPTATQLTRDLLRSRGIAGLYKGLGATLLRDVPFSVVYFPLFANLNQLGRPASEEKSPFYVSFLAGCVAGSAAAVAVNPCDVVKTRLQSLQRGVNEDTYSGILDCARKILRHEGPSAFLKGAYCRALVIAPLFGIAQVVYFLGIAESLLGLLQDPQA
# UniProt Q96FZ2: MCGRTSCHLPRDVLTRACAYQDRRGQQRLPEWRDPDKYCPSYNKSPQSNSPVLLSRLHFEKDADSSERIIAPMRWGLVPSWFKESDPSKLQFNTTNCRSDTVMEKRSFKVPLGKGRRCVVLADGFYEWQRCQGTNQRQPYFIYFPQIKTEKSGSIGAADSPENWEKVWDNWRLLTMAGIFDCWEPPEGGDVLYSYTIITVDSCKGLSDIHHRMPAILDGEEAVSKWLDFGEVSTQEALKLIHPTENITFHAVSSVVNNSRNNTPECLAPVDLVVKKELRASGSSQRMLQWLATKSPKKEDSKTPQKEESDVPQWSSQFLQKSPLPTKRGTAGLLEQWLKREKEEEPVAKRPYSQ
# UniProt P28290: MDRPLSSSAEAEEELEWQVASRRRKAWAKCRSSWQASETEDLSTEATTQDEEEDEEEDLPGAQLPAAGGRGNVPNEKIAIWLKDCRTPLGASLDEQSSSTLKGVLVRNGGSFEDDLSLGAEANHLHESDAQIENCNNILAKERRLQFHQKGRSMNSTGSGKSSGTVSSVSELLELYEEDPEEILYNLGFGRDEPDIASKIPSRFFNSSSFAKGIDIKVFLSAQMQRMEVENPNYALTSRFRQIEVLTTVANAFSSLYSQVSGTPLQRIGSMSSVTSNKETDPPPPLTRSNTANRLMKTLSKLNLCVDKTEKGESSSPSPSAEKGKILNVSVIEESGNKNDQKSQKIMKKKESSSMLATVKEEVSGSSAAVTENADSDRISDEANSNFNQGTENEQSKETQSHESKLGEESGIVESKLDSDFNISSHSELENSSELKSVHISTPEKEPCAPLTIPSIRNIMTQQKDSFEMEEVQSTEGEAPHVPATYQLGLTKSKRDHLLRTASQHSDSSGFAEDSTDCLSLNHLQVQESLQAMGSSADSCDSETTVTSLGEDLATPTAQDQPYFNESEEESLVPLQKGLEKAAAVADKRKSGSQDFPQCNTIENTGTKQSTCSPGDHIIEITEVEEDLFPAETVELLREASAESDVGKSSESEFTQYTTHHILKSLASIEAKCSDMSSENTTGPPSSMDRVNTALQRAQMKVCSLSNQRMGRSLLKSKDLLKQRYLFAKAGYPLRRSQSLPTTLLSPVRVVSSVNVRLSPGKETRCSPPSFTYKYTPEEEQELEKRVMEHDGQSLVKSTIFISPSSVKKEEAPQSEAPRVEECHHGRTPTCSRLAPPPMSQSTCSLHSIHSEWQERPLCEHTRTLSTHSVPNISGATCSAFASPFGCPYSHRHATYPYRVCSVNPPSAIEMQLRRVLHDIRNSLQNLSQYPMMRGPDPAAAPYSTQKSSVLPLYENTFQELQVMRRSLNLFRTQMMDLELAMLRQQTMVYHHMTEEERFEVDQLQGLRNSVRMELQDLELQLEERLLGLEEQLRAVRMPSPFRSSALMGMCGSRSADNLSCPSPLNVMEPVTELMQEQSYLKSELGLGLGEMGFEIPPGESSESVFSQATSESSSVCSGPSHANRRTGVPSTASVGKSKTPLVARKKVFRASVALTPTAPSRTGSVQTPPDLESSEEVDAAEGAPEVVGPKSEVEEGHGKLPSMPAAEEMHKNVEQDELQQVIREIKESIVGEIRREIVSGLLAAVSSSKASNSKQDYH
# UniProt Q15418, whole entry: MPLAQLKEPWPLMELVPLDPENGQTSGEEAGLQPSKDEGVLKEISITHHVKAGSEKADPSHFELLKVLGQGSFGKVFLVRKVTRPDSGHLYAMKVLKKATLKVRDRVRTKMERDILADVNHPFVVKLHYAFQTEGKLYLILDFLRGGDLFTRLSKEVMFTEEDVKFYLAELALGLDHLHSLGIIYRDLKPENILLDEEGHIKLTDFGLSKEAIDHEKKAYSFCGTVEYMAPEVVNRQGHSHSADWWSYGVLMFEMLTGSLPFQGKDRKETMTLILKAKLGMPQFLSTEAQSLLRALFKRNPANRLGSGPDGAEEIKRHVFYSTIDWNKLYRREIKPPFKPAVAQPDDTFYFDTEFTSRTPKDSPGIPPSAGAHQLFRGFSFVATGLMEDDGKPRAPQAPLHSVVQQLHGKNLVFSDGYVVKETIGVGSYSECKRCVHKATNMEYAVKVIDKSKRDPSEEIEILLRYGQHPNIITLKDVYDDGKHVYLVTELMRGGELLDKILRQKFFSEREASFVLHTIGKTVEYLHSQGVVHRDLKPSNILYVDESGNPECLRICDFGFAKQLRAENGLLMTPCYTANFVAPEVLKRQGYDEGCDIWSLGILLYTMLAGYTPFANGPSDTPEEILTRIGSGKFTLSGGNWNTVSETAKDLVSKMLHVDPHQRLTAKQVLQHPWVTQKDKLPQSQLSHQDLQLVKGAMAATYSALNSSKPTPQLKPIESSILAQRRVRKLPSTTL
# UniProt O43674, whole entry: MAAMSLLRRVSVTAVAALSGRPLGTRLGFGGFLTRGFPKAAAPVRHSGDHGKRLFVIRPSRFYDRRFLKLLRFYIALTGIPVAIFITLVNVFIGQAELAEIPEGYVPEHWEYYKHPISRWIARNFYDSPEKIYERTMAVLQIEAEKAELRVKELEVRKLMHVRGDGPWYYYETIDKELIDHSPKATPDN
# UniProt Q4G0X4: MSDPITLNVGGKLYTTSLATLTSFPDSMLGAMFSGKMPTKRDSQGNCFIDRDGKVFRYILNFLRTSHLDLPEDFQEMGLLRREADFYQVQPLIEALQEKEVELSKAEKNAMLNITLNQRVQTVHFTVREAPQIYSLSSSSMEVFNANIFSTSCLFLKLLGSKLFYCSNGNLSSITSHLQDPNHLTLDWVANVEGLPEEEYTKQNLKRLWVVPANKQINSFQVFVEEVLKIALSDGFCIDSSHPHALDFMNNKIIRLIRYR
# UniProt Q6IQ23: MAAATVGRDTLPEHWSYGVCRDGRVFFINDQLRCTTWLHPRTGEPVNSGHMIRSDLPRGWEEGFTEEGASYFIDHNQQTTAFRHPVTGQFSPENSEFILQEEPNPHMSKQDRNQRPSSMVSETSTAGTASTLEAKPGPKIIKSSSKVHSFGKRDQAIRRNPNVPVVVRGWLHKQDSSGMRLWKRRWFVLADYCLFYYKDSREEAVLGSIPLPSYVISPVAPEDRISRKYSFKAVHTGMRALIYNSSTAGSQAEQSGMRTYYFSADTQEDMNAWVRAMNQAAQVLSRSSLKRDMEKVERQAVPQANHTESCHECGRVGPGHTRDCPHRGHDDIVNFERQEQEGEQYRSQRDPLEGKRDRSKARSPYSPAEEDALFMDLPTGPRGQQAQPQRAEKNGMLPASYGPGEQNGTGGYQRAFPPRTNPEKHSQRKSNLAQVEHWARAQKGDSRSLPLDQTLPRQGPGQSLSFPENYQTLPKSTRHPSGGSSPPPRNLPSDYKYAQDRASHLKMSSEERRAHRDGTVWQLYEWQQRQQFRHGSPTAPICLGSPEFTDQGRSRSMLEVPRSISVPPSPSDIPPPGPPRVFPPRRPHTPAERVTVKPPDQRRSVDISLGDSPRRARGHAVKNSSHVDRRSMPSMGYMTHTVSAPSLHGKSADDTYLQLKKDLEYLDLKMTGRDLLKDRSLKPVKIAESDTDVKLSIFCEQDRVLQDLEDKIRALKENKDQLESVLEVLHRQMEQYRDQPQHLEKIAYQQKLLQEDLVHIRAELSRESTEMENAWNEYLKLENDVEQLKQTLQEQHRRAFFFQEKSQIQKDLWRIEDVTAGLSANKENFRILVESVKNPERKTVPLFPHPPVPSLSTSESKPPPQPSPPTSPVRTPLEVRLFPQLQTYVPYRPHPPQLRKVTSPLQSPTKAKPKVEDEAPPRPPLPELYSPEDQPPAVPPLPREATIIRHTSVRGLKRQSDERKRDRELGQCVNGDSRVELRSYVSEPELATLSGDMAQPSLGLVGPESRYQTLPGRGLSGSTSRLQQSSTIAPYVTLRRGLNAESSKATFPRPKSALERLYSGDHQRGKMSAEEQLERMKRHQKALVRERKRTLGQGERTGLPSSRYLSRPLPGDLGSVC
# UniProt Q96C57: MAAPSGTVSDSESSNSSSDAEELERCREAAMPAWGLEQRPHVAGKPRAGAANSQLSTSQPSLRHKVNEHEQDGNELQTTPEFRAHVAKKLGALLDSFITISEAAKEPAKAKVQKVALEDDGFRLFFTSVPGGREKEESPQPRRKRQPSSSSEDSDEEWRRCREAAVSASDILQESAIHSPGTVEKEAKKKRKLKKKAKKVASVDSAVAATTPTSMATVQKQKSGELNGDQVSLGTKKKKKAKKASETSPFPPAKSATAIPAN
# UniProt P68400, whole entry, looked up: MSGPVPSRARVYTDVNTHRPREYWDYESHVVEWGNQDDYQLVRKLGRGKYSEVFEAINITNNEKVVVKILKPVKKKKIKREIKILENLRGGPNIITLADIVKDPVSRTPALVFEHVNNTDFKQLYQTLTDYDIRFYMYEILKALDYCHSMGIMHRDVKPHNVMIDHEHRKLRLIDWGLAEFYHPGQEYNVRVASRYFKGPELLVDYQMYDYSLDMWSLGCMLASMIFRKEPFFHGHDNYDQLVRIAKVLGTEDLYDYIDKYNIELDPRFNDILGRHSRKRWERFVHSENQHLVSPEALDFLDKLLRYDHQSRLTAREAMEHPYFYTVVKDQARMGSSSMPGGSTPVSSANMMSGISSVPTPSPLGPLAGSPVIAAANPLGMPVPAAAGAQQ
# UniProt P49023, whole entry: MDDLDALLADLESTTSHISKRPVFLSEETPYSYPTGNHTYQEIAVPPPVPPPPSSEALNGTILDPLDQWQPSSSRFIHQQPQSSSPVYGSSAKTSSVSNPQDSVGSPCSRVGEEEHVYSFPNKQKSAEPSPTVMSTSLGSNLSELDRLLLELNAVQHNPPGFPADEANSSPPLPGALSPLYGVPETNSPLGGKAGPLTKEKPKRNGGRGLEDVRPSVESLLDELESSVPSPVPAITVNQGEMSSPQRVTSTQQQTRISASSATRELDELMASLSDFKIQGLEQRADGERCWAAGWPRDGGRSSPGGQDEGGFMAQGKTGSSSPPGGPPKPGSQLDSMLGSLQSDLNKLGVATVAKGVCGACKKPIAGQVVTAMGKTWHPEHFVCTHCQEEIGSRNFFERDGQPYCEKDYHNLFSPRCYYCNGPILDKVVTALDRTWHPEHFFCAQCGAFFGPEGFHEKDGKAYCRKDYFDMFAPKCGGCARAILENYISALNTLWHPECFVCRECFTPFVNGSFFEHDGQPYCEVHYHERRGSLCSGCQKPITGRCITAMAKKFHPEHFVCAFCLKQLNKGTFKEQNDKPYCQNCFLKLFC
# UniProt Q9NZD2: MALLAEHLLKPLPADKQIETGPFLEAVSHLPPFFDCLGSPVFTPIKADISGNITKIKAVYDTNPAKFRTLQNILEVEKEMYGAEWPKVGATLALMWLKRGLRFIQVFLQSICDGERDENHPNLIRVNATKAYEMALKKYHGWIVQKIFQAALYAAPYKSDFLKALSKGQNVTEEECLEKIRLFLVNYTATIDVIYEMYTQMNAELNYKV
# UniProt Q13435: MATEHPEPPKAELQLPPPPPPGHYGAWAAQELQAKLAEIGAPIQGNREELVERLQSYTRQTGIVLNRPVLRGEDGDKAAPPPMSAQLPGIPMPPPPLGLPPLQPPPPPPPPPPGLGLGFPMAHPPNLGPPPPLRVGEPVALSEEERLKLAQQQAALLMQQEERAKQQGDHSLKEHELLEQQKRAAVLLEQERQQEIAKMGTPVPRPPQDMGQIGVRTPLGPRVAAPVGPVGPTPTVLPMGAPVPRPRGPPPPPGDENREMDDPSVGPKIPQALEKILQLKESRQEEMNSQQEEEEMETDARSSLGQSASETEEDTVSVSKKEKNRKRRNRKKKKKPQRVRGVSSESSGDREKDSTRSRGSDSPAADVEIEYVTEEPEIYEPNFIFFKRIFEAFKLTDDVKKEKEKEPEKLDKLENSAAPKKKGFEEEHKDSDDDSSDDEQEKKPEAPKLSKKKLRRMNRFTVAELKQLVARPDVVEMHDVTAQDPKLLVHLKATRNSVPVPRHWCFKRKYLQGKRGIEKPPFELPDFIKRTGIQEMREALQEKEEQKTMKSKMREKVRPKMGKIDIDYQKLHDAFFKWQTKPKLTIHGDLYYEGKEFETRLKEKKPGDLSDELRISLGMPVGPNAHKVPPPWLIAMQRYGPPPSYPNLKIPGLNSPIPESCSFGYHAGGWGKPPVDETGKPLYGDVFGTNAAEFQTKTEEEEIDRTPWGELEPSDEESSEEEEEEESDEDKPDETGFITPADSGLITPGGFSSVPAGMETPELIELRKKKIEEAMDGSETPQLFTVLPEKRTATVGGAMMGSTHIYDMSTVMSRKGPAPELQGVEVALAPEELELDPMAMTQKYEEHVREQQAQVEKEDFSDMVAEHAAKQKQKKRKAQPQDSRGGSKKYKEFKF
# ± gives the standard deviation of the averaged measurements. The list shows a part of the results, in another mix than the full data.
# Compound: Nc1ncnc2c1ncn2[C@@H]1O[C@H](COP(=O)(O)OP(=O)(O)NP(=O)(O)O)[C@@H](O)[C@H]1O [adenylyl imidodiphosphate]
# Assay: NP40-soluble protein abundance relative to vehicle (solubility fold change) (ratio); higher = more soluble protein in presence of AMP-PNP
# Outline: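 Values are fold changes against the detergent-processed vehicle, based on vsn-normalised intensities. Jurkat crude lysate was treated at eight concentrations from 0.1 to 10 mM (10 min at room temperature, then 3 min at 37 °C), solubilised with 0.8% NP40 and benzonase, ultracentrifuged and analysed by TMT-labelled LC-MS/MS over three independent experiments.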
Target,NP40-soluble protein abundance (concentration: 1mM),NP40-soluble protein abundance (concentration: 2mM),NP40-soluble protein abundance (concentration: 4mM),NP40-soluble protein abundance (concentration: 6mM),NP40-soluble protein abundance (concentration: 8mM),NP40-soluble protein abundance (concentration: 10mM)
E9PJH7 and related entries (UniProt Q9H936),0.943 ± 0.027,0.917 ± 0.019,1 ± 0.075,1.08 ± 0.098,1.09 ± 0.08,1.08 ± 0.067
F8WDV0 and related entries (UniProt Q9UI26),0.985 ± 0.025,0.935 ± 0.057,0.973 ± 0.011,0.978 ± 0.023,0.956 ± 0.043,0.954 ± 0.027
E7EMP6 and related entries (UniProt Q96FZ2),1.06 ± 0.015,1.01 ± 0.032,1.04 ± 0.021,0.9875 ± 0.0043,1.01 ± 0.016,1 ± 0.033
E9PHV5 and related entries (UniProt P28290),0.98 ± 0.045,0.999 ± 0.012,0.983 ± 0.043,0.984 ± 0.029,0.999 ± 0.023,1.01 ± 0.017
E9PGT3 and related entries (UniProt Q15418),1.012 ± 0.0059,0.947 ± 0.11,0.997 ± 0.043,0.958 ± 0.03,0.979 ± 0.015,0.939 ± 0.026
E7EWP0 and related entries (UniProt O43674),0.945 ± 0.027,0.922 ± 0.016,0.998 ± 0.076,1.08 ± 0.14,1.13 ± 0.076,1.09 ± 0.086
E9PJJ5 and related entries (UniProt Q4G0X4),1 ± 0.012,0.998 ± 0.037,0.981 ± 0.02,0.976 ± 0.042,0.976 ± 0.029,0.964 ± 0.02
F8VXG7 and related entries (UniProt Q99590),1.08 ± 0.033,1.18 ± 0.12,1.15 ± 0.072,1.22 ± 0.067,1.23 ± 0.094,1.31 ± 0.099
E9PKC0 and related entries (UniProt Q6IQ23),1.02 ± 0.03,1.03 ± 0.019,1.04 ± 0.037,1.02 ± 0.036,1.02 ± 0.033,1.07 ± 0.016
F5H7W8 and related entries (UniProt Q96C57),1.17 ± 0.015,1.26 ± 0.088,1.25 ± 0.058,1.29 ± 0.047,1.34 ± 0.062,1.37 ± 0.12
E7EU96 and related entries (UniProt P68400),0.996 ± 0.042,0.875 ± 0.13,0.9825 ± 0.0096,0.948 ± 0.025,1.04 ± 0.026,0.971 ± 0.037
F5GZ78 and related entries (UniProt P49023),1.01 ± 0.055,1.04 ± 0.055,1.03 ± 0.061,0.9664 ± 0.0023,0.956 ± 0.018,0.992 ± 0.075
F5H0U5 and related entries (UniProt Q9NZD2),0.966 ± 0.087,0.999 ± 0.048,0.954 ± 0.11,0.915 ± 0.051,0.936 ± 0.047,0.888 ± 0.099
E7EX90 and related entries (UniProt Q14203),1 ± 0.048,1.02 ± 0.028,0.974 ± 0.043,0.967 ± 0.096,0.932 ± 0.062,0.957 ± 0.088
E9PJ04 and related entries (UniProt Q13435),1.03 ± 0.031,1.09 ± 0.062,1.046 ± 0.0081,1.09 ± 0.064,1.07 ± 0.048,1.14 ± 0.063

# Rewritten with bars between the fields: entries from further up.
Target | NP40-soluble protein abundance (concentration: 1mM) | NP40-soluble protein abundance (concentration: 2mM) | NP40-soluble protein abundance (concentration: 4mM) | NP40-soluble protein abundance (concentration: 6mM) | NP40-soluble protein abundance (concentration: 8mM) | NP40-soluble protein abundance (concentration: 10mM)
E9PJJ5 and related entries (UniProt Q4G0X4) | 1 ± 0.012 | 0.998 ± 0.037 | 0.981 ± 0.02 | 0.976 ± 0.042 | 0.976 ± 0.029 | 0.964 ± 0.02
F8VXG7 and related entries (UniProt Q99590) | 1.08 ± 0.033 | 1.18 ± 0.12 | 1.15 ± 0.072 | 1.22 ± 0.067 | 1.23 ± 0.094 | 1.31 ± 0.099
